The text below walks through data of doi:10.1101/2020.07.14.203299 (bioRxiv, 2020).

Test in all cases: pull-down
In test [1] the target is GST-FlgN (Salmonella enterica serovar Typhimurium) (UniProt P0A1J7).
The target of test [2] is GST-FliJ over-expressed in MMHI0117 cells (Salmonella enterica serovar Typhimurium) (UniProt P0A1K1).
The target is the same in test [3]. The source holds these as a separate data set.
Test [4] concerns the target GST-FlgN/FlgK/FliJ complex (Salmonella enterica serovar Typhimurium) (UniProt P0A1J7).
The target in test [5] is GST-FlgN (Salmonella enterica serovar Typhimurium) (UniProt P0A1J7). This is another data set of the same source.

Like-named read-outs stand apart in the source and are kept apart here. No constants are given. Whether binding was seen depends on the method and setting. For some assays here: In cells and extracts the contact can be indirect. Some binding calls cover weakened binding; strength is not graded here.

With “FliJ (in the GST-FlgN/FlgK/FliJ complex) (from UniProt P0A1K1 1-147)”, the binding entry in test [1] is reported as “binds”.
Turning to FlgN (from UniProt P0A1J7 1-140), the binding entry in test [2] is listed as “binds”.

B1: FlhA (protein, UniProt P40729 1-692)
chain: MANLVAMLRLPSNLKSTQWQILAGPILILLILSMMVLPLPAFILDLLFTFNIALSIMVLLVAMFTQRTLDFAAFPTILLFTTLLRLALNVASTRIILMEGHTGAAAAGKVVEAFGHFLVGGNFAIGIVVFIILVIINFMVITKGAGRIAEVGARFVLDGMPGKQMAIDADLNAGLIGEDEAKKRRSEVTQEADFYGSMDGASKFVRGDAIAGILIMVINVVGGLLVGVLQHGMSIGSAAESYTLLTIGDGLVAQIPALVISTAAGVIVTRVSTDQDVGEQMVGQLFSNPRVMLLAAAVLGLLGMVPGMPNLVFLLFTAALLGLAWWLRGREEKAPEEPQPVKMPENNSVVEATWNDVQLEDSLGMEVGYRLIPMVDFQQDGELLGRIRSIRKKFAQDMGFLPPVVHIRDNMDLQPARYRILMKGVEIGSGDAYPGRWLAINPGTAAGTLPGEKTVDPAFGLDAIWIESALKEQAQIQGFTVVEASTVVATHLNHLIGQFSAELFGRQEAQQLLDRVSQEMPKLTEDLVPGVVTLTTLHKVLQNLLAEKVPIRDMRTILETLAEHAPLQSDPHELTAVVRVALGRAITQQWFPGNEEVQVIGLDTALERLLLQALQGGGGLEPGLADRLLAQTQEALSRQEMLGAPPVLLVNHALRPLLSRFLRRSLPQLVVLSNLELSDNRHIRMTATIGGK
As for B1, in test [3], the binding result was “binds”.

B2: FlhA_(C38K) lacking residues 328–351 of FlhAL (domain or fragment, UniProt P40729 352-692)
chain: ATWNDVQLEDSLGMEVGYRLIPMVDFQQDGELLGRIRSIRKKFAQDMGFLPPVVHIRDNMDLQPARYRILMKGVEIGSGDAYPGRWLAINPGTAAGTLPGEKTVDPAFGLDAIWIESALKEQAQIQGFTVVEASTVVATHLNHLIGQFSAELFGRQEAQQLLDRVSQEMPKLTEDLVPGVVTLTTLHKVLQNLLAEKVPIRDMRTILETLAEHAPLQSDPHELTAVVRVALGRAITQQWFPGNEEVQVIGLDTALERLLLQALQGGGGLEPGLADRLLAQTQEALSRQEMLGAPPVLLVNHALRPLLSRFLRRSLPQLVVLSNLELSDNRHIRMTATIGGK
Turning to B2, the binding result in test [4] and in test [5] was “binds” each time.
